# In the supplement of paper PMC10849652:
# Sequences of proteins named here, by UniProt entry; tags and fusion partners are left off. A change or cut given only in a name is not applied to a line headed by its entry.
# UniProt P53041: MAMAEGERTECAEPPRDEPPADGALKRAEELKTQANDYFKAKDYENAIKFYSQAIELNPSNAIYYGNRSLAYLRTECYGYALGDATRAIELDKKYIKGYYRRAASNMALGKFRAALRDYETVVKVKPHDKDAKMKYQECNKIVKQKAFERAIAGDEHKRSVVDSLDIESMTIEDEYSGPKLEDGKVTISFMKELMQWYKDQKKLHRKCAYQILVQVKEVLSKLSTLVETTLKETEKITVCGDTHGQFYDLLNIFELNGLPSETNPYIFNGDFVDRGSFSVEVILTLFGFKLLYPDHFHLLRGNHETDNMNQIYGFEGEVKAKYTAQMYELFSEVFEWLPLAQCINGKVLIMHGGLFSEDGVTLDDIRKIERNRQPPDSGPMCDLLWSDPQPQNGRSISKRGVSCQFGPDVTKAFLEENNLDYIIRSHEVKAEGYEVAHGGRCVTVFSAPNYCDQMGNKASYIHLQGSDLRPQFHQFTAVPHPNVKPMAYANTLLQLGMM
# UniProt Q8NI37: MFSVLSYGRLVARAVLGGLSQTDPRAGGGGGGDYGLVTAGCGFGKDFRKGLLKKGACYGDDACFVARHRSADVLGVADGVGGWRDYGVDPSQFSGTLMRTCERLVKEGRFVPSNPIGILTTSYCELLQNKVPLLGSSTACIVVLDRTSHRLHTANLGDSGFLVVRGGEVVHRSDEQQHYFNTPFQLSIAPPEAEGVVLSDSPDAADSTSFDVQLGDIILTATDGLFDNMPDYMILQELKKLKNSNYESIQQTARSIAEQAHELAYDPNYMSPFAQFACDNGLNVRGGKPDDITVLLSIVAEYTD
# UniProt P32119: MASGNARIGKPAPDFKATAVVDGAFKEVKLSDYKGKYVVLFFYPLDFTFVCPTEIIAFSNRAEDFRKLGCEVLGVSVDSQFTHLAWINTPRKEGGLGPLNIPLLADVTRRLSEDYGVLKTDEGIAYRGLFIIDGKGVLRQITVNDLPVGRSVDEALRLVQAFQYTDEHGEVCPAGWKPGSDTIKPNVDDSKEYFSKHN
# UniProt Q9Y570: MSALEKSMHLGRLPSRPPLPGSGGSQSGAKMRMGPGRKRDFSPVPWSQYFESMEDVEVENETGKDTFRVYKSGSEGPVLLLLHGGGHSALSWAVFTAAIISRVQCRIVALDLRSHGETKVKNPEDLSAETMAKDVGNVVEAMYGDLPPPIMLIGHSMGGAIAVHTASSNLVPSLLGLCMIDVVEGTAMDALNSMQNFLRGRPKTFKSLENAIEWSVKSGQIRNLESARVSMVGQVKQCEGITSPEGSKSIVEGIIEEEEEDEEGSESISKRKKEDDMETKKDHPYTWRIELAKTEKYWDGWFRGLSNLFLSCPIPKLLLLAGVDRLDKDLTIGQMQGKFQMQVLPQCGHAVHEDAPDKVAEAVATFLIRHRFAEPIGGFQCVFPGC
# UniProt Q13029: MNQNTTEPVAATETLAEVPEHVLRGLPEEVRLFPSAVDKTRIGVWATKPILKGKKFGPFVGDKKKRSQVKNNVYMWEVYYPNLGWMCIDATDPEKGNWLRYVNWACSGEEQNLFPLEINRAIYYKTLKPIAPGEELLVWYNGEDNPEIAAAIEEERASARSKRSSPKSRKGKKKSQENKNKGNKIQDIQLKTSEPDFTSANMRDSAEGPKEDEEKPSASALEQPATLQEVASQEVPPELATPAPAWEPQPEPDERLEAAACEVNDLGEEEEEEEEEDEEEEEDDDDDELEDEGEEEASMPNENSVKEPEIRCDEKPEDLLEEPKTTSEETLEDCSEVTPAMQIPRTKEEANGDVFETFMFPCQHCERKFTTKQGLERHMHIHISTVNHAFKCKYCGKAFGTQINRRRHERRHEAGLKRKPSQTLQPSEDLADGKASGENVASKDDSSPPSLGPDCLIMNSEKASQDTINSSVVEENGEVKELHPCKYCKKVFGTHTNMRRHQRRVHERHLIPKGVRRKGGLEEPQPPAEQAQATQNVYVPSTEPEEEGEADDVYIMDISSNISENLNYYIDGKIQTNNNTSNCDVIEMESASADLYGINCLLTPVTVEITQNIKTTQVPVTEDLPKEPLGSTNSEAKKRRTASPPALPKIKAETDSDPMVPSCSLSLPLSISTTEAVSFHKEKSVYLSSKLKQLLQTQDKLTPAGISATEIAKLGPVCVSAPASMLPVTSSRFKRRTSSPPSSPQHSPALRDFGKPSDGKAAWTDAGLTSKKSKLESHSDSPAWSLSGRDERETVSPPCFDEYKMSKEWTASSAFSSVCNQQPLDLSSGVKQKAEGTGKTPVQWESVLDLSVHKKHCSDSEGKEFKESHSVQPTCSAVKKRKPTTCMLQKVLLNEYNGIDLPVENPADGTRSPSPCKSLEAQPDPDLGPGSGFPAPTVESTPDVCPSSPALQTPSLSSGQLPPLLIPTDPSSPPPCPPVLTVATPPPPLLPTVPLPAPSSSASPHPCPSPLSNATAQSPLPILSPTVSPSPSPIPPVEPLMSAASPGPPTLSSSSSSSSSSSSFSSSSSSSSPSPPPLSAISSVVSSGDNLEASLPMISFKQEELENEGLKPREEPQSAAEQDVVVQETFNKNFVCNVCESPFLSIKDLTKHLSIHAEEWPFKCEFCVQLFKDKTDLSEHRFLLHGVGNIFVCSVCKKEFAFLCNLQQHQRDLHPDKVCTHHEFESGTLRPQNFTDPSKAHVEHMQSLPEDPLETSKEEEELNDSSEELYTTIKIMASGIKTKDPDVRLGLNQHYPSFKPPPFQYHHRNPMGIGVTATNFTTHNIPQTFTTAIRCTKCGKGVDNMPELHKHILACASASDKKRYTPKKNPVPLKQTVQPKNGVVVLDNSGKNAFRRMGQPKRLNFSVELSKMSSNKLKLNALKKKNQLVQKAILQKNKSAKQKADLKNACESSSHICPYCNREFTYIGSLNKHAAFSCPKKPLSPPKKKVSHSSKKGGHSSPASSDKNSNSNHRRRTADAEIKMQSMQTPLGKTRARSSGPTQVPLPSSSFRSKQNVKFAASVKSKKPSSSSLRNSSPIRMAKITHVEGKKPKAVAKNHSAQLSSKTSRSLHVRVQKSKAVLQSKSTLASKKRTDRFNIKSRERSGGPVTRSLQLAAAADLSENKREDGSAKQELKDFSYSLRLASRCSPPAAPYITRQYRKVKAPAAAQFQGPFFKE
# UniProt P62714, whole entry, looked up: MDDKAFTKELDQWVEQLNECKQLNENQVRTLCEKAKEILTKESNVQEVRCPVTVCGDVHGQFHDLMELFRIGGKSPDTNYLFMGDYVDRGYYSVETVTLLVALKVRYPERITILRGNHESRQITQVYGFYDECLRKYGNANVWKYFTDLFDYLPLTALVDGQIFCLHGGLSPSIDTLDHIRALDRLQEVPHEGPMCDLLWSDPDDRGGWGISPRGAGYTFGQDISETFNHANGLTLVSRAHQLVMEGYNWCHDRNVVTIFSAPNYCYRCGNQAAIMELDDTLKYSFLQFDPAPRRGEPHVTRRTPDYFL
# UniProt P62140, whole entry, looked up: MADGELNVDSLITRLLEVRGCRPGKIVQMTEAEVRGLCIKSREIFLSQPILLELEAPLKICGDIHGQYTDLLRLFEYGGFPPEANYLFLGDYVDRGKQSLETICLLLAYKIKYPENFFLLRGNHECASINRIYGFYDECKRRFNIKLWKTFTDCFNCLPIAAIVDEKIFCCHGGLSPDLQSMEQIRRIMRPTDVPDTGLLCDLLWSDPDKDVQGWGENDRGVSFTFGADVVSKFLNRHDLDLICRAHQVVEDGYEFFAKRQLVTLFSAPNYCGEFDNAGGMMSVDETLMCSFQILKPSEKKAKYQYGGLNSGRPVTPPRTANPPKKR
# UniProt P49593: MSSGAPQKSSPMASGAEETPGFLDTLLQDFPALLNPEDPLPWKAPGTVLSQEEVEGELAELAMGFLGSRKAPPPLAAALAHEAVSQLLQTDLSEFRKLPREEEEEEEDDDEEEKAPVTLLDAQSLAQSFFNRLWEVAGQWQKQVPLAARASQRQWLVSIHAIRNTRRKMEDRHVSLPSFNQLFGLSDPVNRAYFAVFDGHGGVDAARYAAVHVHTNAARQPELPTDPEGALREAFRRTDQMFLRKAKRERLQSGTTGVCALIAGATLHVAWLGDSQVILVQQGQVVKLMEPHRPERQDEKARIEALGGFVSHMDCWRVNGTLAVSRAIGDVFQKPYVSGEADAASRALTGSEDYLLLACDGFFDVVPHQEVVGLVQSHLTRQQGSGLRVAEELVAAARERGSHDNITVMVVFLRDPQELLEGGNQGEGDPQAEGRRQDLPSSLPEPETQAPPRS
# UniProt O95685: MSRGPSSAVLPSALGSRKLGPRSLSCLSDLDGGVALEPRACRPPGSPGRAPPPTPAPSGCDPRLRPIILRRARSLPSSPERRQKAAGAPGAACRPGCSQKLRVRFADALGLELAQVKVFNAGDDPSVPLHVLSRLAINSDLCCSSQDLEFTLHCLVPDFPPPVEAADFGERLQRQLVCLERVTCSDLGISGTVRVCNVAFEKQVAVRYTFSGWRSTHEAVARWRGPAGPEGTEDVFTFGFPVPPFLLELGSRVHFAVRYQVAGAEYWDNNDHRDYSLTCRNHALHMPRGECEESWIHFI
# UniProt Q8TF05: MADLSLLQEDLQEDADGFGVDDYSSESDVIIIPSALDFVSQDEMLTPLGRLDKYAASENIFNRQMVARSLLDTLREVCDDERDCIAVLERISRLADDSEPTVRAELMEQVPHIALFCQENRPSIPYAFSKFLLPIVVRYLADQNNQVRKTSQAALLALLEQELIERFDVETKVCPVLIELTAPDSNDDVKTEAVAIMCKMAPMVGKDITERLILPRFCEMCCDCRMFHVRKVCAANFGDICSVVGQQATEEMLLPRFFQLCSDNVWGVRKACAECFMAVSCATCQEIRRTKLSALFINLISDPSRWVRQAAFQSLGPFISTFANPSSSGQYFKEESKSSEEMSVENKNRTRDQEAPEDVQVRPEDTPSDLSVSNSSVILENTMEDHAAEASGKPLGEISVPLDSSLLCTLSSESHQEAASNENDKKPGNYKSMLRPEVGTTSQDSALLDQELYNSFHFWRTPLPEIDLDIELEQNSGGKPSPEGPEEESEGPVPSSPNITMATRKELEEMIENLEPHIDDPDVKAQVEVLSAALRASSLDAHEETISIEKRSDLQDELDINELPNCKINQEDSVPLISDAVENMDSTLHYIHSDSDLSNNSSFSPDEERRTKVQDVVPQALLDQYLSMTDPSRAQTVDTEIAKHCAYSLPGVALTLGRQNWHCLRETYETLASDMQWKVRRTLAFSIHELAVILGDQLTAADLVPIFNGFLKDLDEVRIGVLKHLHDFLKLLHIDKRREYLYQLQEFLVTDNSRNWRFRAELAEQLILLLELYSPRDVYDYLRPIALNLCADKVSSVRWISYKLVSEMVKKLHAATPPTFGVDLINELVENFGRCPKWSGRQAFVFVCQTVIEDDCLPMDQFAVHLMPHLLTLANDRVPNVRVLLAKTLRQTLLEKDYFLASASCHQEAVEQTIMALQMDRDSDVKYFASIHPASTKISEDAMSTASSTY
# UniProt Q96BP3: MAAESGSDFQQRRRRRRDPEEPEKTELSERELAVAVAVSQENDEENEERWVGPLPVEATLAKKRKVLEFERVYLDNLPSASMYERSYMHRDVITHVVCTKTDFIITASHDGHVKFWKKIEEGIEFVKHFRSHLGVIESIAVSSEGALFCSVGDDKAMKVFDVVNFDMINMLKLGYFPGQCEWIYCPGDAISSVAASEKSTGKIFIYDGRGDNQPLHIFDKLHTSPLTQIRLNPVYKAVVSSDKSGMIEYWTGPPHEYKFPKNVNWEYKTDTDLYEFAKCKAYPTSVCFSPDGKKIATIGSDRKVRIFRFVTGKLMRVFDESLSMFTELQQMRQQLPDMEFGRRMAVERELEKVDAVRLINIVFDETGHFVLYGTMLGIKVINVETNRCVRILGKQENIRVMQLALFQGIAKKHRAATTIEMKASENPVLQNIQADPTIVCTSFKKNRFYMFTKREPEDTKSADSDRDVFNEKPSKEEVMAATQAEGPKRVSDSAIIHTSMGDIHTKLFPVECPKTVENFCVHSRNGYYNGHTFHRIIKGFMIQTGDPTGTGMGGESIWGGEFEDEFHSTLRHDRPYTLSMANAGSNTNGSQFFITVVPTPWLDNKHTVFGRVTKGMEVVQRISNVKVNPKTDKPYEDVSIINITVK
# UniProt P31323, whole entry, looked up: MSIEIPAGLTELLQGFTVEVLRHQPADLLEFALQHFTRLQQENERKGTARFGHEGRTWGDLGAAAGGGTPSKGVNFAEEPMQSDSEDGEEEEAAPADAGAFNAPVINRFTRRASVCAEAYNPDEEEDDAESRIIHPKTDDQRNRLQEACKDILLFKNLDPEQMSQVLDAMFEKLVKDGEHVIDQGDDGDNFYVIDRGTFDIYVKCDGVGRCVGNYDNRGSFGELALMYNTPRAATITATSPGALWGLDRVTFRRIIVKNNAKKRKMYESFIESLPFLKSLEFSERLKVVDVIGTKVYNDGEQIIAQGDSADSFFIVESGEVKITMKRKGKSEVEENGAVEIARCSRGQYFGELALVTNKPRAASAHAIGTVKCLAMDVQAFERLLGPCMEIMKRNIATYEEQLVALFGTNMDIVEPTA
# Some of the results follow.
# Compound: NCC(=O)Nc1ccc(-n2nc(C(F)(F)F)cc2-c2ccc3c(ccc4ccccc43)c2)cc1
# Assay: log2 fold change, soluble protein after heating vs DMSO (PISA); higher = thermal stabilisation; K562 lysate, 10 uM; active = over 0.2 and 3.5 SD of the protein, either way, in both replicates (recomputed)
# Procedure, shortened: (§1)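 A 30 min treatment with 10 μM compound was applied to crude K562 extract at 1 mg/mL protein in PBS pH 7.4 with 1 mM MgCl2. Heating for 3 min spanned 48°C-58°C, after which aliquots were pooled, adjusted to 0.5% NP-40 at 4°C and spun at 21,000xg for 90 min. TMTpro 16plex LC-MS/MS of the supernatant, with channel sums equalised, gave values recorded as log-two fold change in thermal stability against solvent controls, from duplicates.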
row,Target,log2 fold change
1,PRKD2 isoform 3 (UniProt Q9BZL6),inactive: -0.043
2,PPP1R12C isoform 4 (UniProt Q9BZL4),inactive: 0.02
3,PPP5C (UniProt P53041),inactive: 0.016
4,PRKCSH (UniProt P14314),inactive: 0.002
5,PPM1H (UniProt Q9ULR3),inactive: -0.004
6,PPP2R5E (UniProt Q16537),inactive: -0.003
7,PPP2R1A (UniProt P30153),inactive: -0.006
8,PPP2R5C isoform 2 (UniProt Q13362),inactive: -0.004
9,PRPF18 (UniProt Q99633),inactive: -0.002
10,PPP1R14A (UniProt Q96A00),inactive: 0.043
11,PRKCA (UniProt P17252),inactive: -0.045
12,PROSER2 (UniProt Q86WR7),inactive: -0.005
13,PPTC7 (UniProt Q8NI37),inactive: 0.135
14,PRDX2 (UniProt P32119),inactive: -0.007
15,PROSER3 (UniProt Q2NL68),inactive: 0.05
16,PPIG (UniProt Q13427),inactive: -0.197
17,PPP2R2D (UniProt Q66LE6),inactive: 0.05
18,PPP4C (UniProt P60510),inactive: 0.035
19,PPP3CC (UniProt P48454),inactive: 0.01
20,PPME1 isoform 4 (UniProt Q9Y570),inactive: -0.02

row,Target,log2 fold change
1,PRAME (UniProt P78395),inactive: 0.025
2,PPIL1 (UniProt Q9Y3C6),inactive: -0.027
3,PRDM2 (UniProt Q13029),inactive: 0.035
4,PPP2CB (UniProt P62714),inactive: 0.005
5,PPP1CB (UniProt P62140),inactive: -0.041
6,PPM1F (UniProt P49593),inactive: 0.004
7,PPP1R9B (UniProt Q96SB3),inactive: 0
8,PROSER1 (UniProt Q86XN7),inactive: -0.015
9,PPP2R5B (UniProt Q15173),inactive: 0.077
10,PRPF31 (UniProt Q8WWY3),inactive: -0.023
11,PPP1R3D (UniProt O95685),inactive: -0.025
12,PPP4R1 (UniProt Q8TF05),inactive: 0.007
13,PRPF19 (UniProt Q9UMS4),inactive: -0.027
14,PRKAR1B (UniProt P31321),inactive: -0.114
15,PPP6C isoform 3 (UniProt O00743),inactive: -0.002
16,PPP6R1 (UniProt Q9UPN7),inactive: -0.01
17,PPWD1 (UniProt Q96BP3),inactive: 0.048
18,PPIF (UniProt P30405),inactive: 0.01
19,PRKAR2B (UniProt P31323),inactive: 0.014

# Compound: O=C(CCCCCCC(=O)Nc1ccccc1)NO [vorinostat]
# Assay: as above
# Procedure, shortened: as §1
row,Target,log2 fold change
1,PRKD2 isoform 3 (UniProt Q9BZL6),active: -0.326
2,PPP1R12C isoform 4 (UniProt Q9BZL4),inactive: -0.13
3,PPP5C (UniProt P53041),inactive: 0.076
4,PRKCSH (UniProt P14314),inactive: 0.141
5,PPM1H (UniProt Q9ULR3),inactive: 0.206
6,PPP2R5E (UniProt Q16537),inactive: -0.054
7,PPP2R1A (UniProt P30153),inactive: -0.101
8,PPP2R5C isoform 2 (UniProt Q13362),inactive: -0.12
9,PRPF18 (UniProt Q99633),inactive: -0.097
10,PPP1R14A (UniProt Q96A00),inactive: 0.169
11,PRKCA (UniProt P17252),inactive: -0.14
12,PROSER2 (UniProt Q86WR7),inactive: -0.1
13,PRDX2 (UniProt P32119),inactive: 0.103
14,PROSER3 (UniProt Q2NL68),inactive: -0.596
15,PPIG (UniProt Q13427),inactive: -0.186
16,PPP2R2D (UniProt Q66LE6),inactive: 0.006
17,PPP4C (UniProt P60510),inactive: 0.093
18,PPP3CC (UniProt P48454),inactive: -0.075
19,PPME1 isoform 4 (UniProt Q9Y570),inactive: -0.03

row,Target,log2 fold change
1,PRAME (UniProt P78395),active: -0.283
2,PPIL1 (UniProt Q9Y3C6),inactive: -0.169
3,PRDM2 (UniProt Q13029),inactive: 0.018
4,PPP2CB (UniProt P62714),inactive: 0.054
5,PPP1CB (UniProt P62140),inactive: -0.056
6,PPM1F (UniProt P49593),inactive: 0.002
7,PPP1R9B (UniProt Q96SB3),inactive: 0.166
8,PROSER1 (UniProt Q86XN7),inactive: -0.513
9,PPP2R5B (UniProt Q15173),inactive: -0.075
10,PRPF31 (UniProt Q8WWY3),inactive: -0.213
11,PPP1R3D (UniProt O95685),inactive: -0.115
12,PPP4R1 (UniProt Q8TF05),inactive: -0.198
13,PRPF19 (UniProt Q9UMS4),inactive: 0.031
14,PRKAR1B (UniProt P31321),inactive: -0.07
15,PPP6C isoform 3 (UniProt O00743),inactive: 0.07
16,PPP6R1 (UniProt Q9UPN7),inactive: -0.117
17,PPWD1 (UniProt Q96BP3),inactive: 0.051
18,PPIF (UniProt P30405),inactive: 0.056
19,PRKAR2B (UniProt P31323),inactive: -0.093
